# According to the supplement of paper PMC8728848:
# The other results are listed elsewhere or left out.
# B1: PX14379D-pdi-530-26-530 (Parabacteroides distasonis) (protein)
# chain: DETVYDKLPADDFGQSTAELNALIGNSHNTMKKFWTEYMHLSECSGSMAVTPTRRGGDWYDGGQYREIYMHTWTSQTSRVKSAWKAATEAIGTCNEAIRKLQNSEILTEEEKAQDVADLRGVRAFWIYVMMDYWGNIPLLTEFHPTDKVFPGNSSRQEVFDWLIQEVEEIKDICPPATTENYGSFTQGAAYSLLAKLYLNAEAWGVTFSGNAYQKVIDNCDKVMAMGYILEPNWKDNFSVTNENSKEAILAATFSSSDTGNDGNVKNELHNNTLHYKDYLSLGITASGTWNGICAQPEYVRLFDEEDARLDGTFLTGLMIDKSTGKPIMTDHNNELNHTIDVNMIPGMEYDGTNWSAVEQHDGARCFKWEFASDLTSSMGNDFHIFRLADIYLMKAEALLRGGGSVSEATALVNTIRERGYGNSDHNYATVTLKEVQLERRLELAWEVYSRQDDIRFGCFTTGMWPQSNCERKADDYLKLLPVSQDAWQVNPNLKQNPGYAAFSK
# Key:
# Assay in all cases: glycan array binding signal (z-score within array); higher = stronger binding
# Settings in all cases: glycan notation: IUPAC condensed, linker removed
# [1] = biological target: GlcNAc(b1-2)Gal(b1-3)GalNAc
# In short: (§1)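 Glycan array data were curated from 3228 arrays in the Consortium for Functional Glycomics database and kept only where the protein sequence was available. Glycan names were converted to IUPAC-condensed notation, and columns mapping to the same glycan were averaged. The binding signal is a within-array Z-score, averaged across arrays of the same protein sequence at different concentrations or buffers and across linkers. Negative Z-scores can be read as non-binding.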
# [2] = biological target: GlcNAc(b1-2)Man(a1-3)[GlcNAc(b1-2)Man(a1-6)]Man(b1-4)GlcNAc(b1-4)GlcNAc
# In short: as §1
# [3] = biological target: GlcNAc(b1-2)Man(a1-3)[GlcNAc(b1-2)Man(a1-6)]Man(b1-4)GlcNAc(b1-4)[Fuc(a1-6)]GlcNAc
# In short: as §1
# [4] = biological target: GlcNAc(b1-2)Man(a1-3)[GlcNAc(b1-4)][GlcNAc(b1-2)Man(a1-6)]Man(b1-4)GlcNAc(b1-4)GlcNAc
# In short: as §1
# [5] = biological target: GlcNAc(b1-2)Man(a1-3)[GlcNAc(b1-4)][GlcNAc(b1-2)Man(a1-6)]Man(b1-4)GlcNAc(b1-4)[Fuc(a1-6)]GlcNAc
# In short: as §1
# [6] = biological target: GlcNAc(b1-2)[GlcNAc(b1-4)]Man(a1-3)[GlcNAc(b1-2)Man(a1-6)]Man(b1-4)GlcNAc(b1-4)GlcNAc
# In short: as §1
# [7] = biological target: GlcNAc(b1-2)[GlcNAc(b1-4)]Man(a1-3)[GlcNAc(b1-4)][GlcNAc(b1-2)Man(a1-6)]Man(b1-4)GlcNAc(b1-4)GlcNAc
# In short: as §1
# [8] = biological target: GlcNAc(b1-2)[GlcNAc(b1-4)]Man(a1-3)[GlcNAc(b1-4)][GlcNAc(b1-2)[GlcNAc(b1-6)]Man(a1-6)]Man(b1-4)GlcNAc(b1-4)GlcNAc
# In short: as §1
# [9] = biological target: GlcNAc(b1-2)[GlcNAc(b1-4)]Man(a1-3)[GlcNAc(b1-4)][GlcNAc(b1-2)[GlcNAc(b1-6)]Man(a1-6)]Man(b1-4)GlcNAc(b1-4)[Fuc(a1-6)]GlcNAc
# In short: as §1
# [10] = biological target: GlcNAc(b1-2)[GlcNAc(b1-6)]Man(a1-6)[GlcNAc(b1-2)Man(a1-3)]Man(b1-4)GlcNAc(b1-4)GlcNAc
# In short: as §1
# [11] = biological target: GlcNAc(b1-2)[GlcNAc(b1-6)]Man(a1-6)[GlcNAc(b1-2)Man(a1-3)]Man(b1-4)GlcNAc(b1-4)[Fuc(a1-6)]GlcNAc
# In short: as §1
# [12] = biological target: GlcNAc(b1-2)[GlcNAc(b1-6)]Man(a1-6)[GlcNAc(b1-4)][GlcNAc(b1-2)Man(a1-3)]Man(b1-4)GlcNAc(b1-4)GlcNAc
# In short: as §1
# GlcNAc(b1-3)Fuc = biological target: GlcNAc(b1-3)Fuc
# In short: as §1
# GlcNAc(b1-3)Gal = biological target: GlcNAc(b1-3)Gal
# In short: as §1
# [13] = biological target: GlcNAc(b1-3)Gal(b1-3)GalNAc
# In short: as §1
# GlcNAc(b1-3)Gal(b1-4)Glc = biological target: GlcNAc(b1-3)Gal(b1-4)Glc
# In short: as §1
# [14] = biological target: GlcNAc(b1-3)Gal(b1-4)GlcNAc
# In short: as §1
# [15] = biological target: GlcNAc(b1-3)Gal(b1-4)GlcNAc(b1-2)Man(a1-3)[GlcNAc(b1-3)Gal(b1-4)GlcNAc(b1-2)Man(a1-6)]Man(b1-4)GlcNAc(b1-4)GlcNAc
# In short: as §1
# [16] = biological target: GlcNAc(b1-3)Gal(b1-4)GlcNAc(b1-2)Man(a1-3)[GlcNAc(b1-3)Gal(b1-4)GlcNAc(b1-2)Man(a1-6)]Man(b1-4)GlcNAc(b1-4)[Fuc(a1-6)]GlcNAc
# In short: as §1
# [17] = biological target: GlcNAc(b1-3)Gal(b1-4)GlcNAc(b1-2)[GlcNAc(b1-3)Gal(b1-4)GlcNAc(b1-6)]Man(a1-6)[GlcNAc(b1-3)Gal(b1-4)GlcNAc(b1-2)Man(a1-3)]Man(b1-4)GlcNAc(b1-4)GlcNAc
# In short: as §1
# [18] = biological target: GlcNAc(b1-3)Gal(b1-4)GlcNAc(b1-3)Gal(b1-4)GlcNAc
# In short: as §1
# [19] = biological target: GlcNAc(b1-3)Gal(b1-4)GlcNAc(b1-3)Gal(b1-4)GlcNAc(b1-2)Man(a1-3)[GlcNAc(b1-3)Gal(b1-4)GlcNAc(b1-3)Gal(b1-4)GlcNAc(b1-2)Man(a1-6)]Man(b1-4)GlcNAc(b1-4)GlcNAc
# In short: as §1
# [20] = biological target: GlcNAc(b1-3)Gal(b1-4)GlcNAc(b1-3)Gal(b1-4)GlcNAc(b1-2)Man(a1-3)[GlcNAc(b1-3)Gal(b1-4)GlcNAc(b1-3)Gal(b1-4)GlcNAc(b1-2)Man(a1-6)]Man(b1-4)GlcNAc(b1-4)[Fuc(a1-6)]GlcNAc
# In short: as §1
# [21] = biological target: GlcNAc(b1-3)Gal(b1-4)GlcNAc(b1-3)Gal(b1-4)GlcNAc(b1-2)[GlcNAc(b1-3)Gal(b1-4)GlcNAc(b1-3)Gal(b1-4)GlcNAc(b1-6)]Man(a1-6)[GlcNAc(b1-3)Gal(b1-4)GlcNAc(b1-3)Gal(b1-4)GlcNAc(b1-2)Man(a1-3)]Man(b1-4)GlcNAc(b1-4)[Fuc(a1-6)]GlcNAc
# In short: as §1
# [22] = biological target: GlcNAc(b1-3)Gal(b1-4)GlcNAc(b1-3)Gal(b1-4)GlcNAc(b1-3)Gal(b1-4)GlcNAc(b1-2)Man(a1-3)[GlcNAc(b1-3)Gal(b1-4)GlcNAc(b1-3)Gal(b1-4)GlcNAc(b1-3)Gal(b1-4)GlcNAc(b1-2)Man(a1-6)]Man(b1-4)GlcNAc(b1-4)GlcNAc
# In short: as §1
# [23] = biological target: GlcNAc(b1-3)Gal(b1-4)GlcNAc(b1-3)Gal(b1-4)GlcNAc(b1-3)Gal(b1-4)GlcNAc(b1-2)Man(a1-3)[GlcNAc(b1-3)Gal(b1-4)GlcNAc(b1-3)Gal(b1-4)GlcNAc(b1-3)Gal(b1-4)GlcNAc(b1-2)Man(a1-6)]Man(b1-4)GlcNAc(b1-4)[Fuc(a1-6)]GlcNAc
# In short: as §1
# [24] = biological target: GlcNAc(b1-3)Gal(b1-4)GlcNAc(b1-3)Gal(b1-4)GlcNAc(b1-3)Gal(b1-4)GlcNAc(b1-2)[GlcNAc(b1-3)Gal(b1-4)GlcNAc(b1-3)Gal(b1-4)GlcNAc(b1-3)Gal(b1-4)GlcNAc(b1-6)]Man(a1-6)[GlcNAc(b1-3)Gal(b1-4)GlcNAc(b1-3)Gal(b1-4)GlcNAc(b1-3)Gal(b1-4)GlcNAc(b1-2)Man(a1-3)]Man(b1-4)GlcNAc(b1-4)[Fuc(a1-6)]GlcNAc
# In short: as §1
# [25] = biological target: GlcNAc(b1-3)Gal(b1-4)GlcNAc(b1-3)Gal(b1-4)GlcNAc(b1-3)Gal(b1-4)GlcNAc(b1-3)Gal(b1-4)GlcNAc(b1-2)Man(a1-3)[GlcNAc(b1-3)Gal(b1-4)GlcNAc(b1-3)Gal(b1-4)GlcNAc(b1-3)Gal(b1-4)GlcNAc(b1-3)Gal(b1-4)GlcNAc(b1-2)Man(a1-6)]Man(b1-4)GlcNAc(b1-4)GlcNAc
# In short: as §1
# [26] = biological target: GlcNAc(b1-3)Gal(b1-4)GlcNAc(b1-3)Gal(b1-4)GlcNAc(b1-3)Gal(b1-4)GlcNAc(b1-3)Gal(b1-4)GlcNAc(b1-2)Man(a1-3)[GlcNAc(b1-3)Gal(b1-4)GlcNAc(b1-3)Gal(b1-4)GlcNAc(b1-3)Gal(b1-4)GlcNAc(b1-3)Gal(b1-4)GlcNAc(b1-2)Man(a1-6)]Man(b1-4)GlcNAc(b1-4)[Fuc(a1-6)]GlcNAc
# In short: as §1
# [27] = biological target: GlcNAc(b1-3)Gal(b1-4)GlcNAc(b1-3)Gal(b1-4)GlcNAc(b1-3)Gal(b1-4)GlcNAc(b1-3)Gal(b1-4)GlcNAc(b1-2)[GlcNAc(b1-3)Gal(b1-4)GlcNAc(b1-3)Gal(b1-4)GlcNAc(b1-3)Gal(b1-4)GlcNAc(b1-3)Gal(b1-4)GlcNAc(b1-6)]Man(a1-6)[GlcNAc(b1-3)Gal(b1-4)GlcNAc(b1-3)Gal(b1-4)GlcNAc(b1-3)Gal(b1-4)GlcNAc(b1-3)Gal(b1-4)GlcNAc(b1-2)Man(a1-3)]Man(b1-4)GlcNAc(b1-4)[Fuc(a1-6)]GlcNAc
# In short: as §1
# [28] = biological target: GlcNAc(b1-3)Gal(b1-4)GlcNAc(b1-3)Gal(b1-4)GlcNAc(b1-3)GalNAc
# In short: as §1
# [29] = biological target: GlcNAc(b1-3)Gal(b1-4)GlcNAc(b1-3)GalNAc
# In short: as §1
# [30] = biological target: GlcNAc(b1-3)Gal(b1-4)GlcNAc(b1-3)[GlcNAc(b1-3)Gal(b1-4)GlcNAc(b1-3)]GalNAc
# In short: as §1
# [31] = biological target: GlcNAc(b1-3)Gal(b1-4)GlcNAc(b1-6)[Gal(b1-3)]GalNAc
# In short: as §1
# [32] = biological target: GlcNAc(b1-3)Gal(b1-4)GlcNAc(b1-6)[GlcNAc(b1-3)Gal(b1-3)]GalNAc
# In short: as §1
# [33] = biological target: GlcNAc(b1-3)Gal(b1-4)GlcNAc(b1-6)[GlcNAc(b1-3)]Gal(b1-4)GlcNAc
# In short: as §1
# GlcNAc(b1-3)GalNAc = biological target: GlcNAc(b1-3)GalNAc
# In short: as §1
binder,measurement,setting,value
B1,glycan array binding signal (z-score),[1],0.032
same,glycan array binding signal (z-score),[2],-0.793
same,glycan array binding signal (z-score),[3],0.597
same,glycan array binding signal (z-score),[4],-0.383
same,glycan array binding signal (z-score),[5],0.105
same,glycan array binding signal (z-score),[6],-0.409
same,glycan array binding signal (z-score),[7],-0.123
same,glycan array binding signal (z-score),[8],-0.189
same,glycan array binding signal (z-score),[9],-0.785
same,glycan array binding signal (z-score),[10],-0.244
same,glycan array binding signal (z-score),[11],-0.08
same,glycan array binding signal (z-score),[12],-0.725
same,glycan array binding signal (z-score),GlcNAc(b1-3)Fuc,0.618
same,glycan array binding signal (z-score),GlcNAc(b1-3)Gal,0.118
same,glycan array binding signal (z-score),[13],0.552
same,glycan array binding signal (z-score),GlcNAc(b1-3)Gal(b1-4)Glc,-0.587
same,glycan array binding signal (z-score),[14],-0.004
same,glycan array binding signal (z-score),[15],0.758
same,glycan array binding signal (z-score),[16],0.749
same,glycan array binding signal (z-score),[17],2.11
same,glycan array binding signal (z-score),[18],-0.149
same,glycan array binding signal (z-score),[19],2.91
same,glycan array binding signal (z-score),[20],2.19
same,glycan array binding signal (z-score),[21],1.55
same,glycan array binding signal (z-score),[22],-0.101
same,glycan array binding signal (z-score),[23],2.19
same,glycan array binding signal (z-score),[24],0.906
same,glycan array binding signal (z-score),[25],-0.442
same,glycan array binding signal (z-score),[26],0.569
same,glycan array binding signal (z-score),[27],0.713
same,glycan array binding signal (z-score),[28],-1.19
same,glycan array binding signal (z-score),[29],0.694
same,glycan array binding signal (z-score),[30],-0.79
same,glycan array binding signal (z-score),[31],-0.28
same,glycan array binding signal (z-score),[32],0.841
same,glycan array binding signal (z-score),[33],-0.751
same,glycan array binding signal (z-score),GlcNAc(b1-3)GalNAc,-0.05

# Part of the list above, bar-delimited:
binder | measurement | setting | value
B1 | glycan array binding signal (z-score) | [27] | 0.713
same | glycan array binding signal (z-score) | [28] | -1.19
